From PubChem BioAssay AID2417 (National Center for Advancing Translational Sciences (NCATS), 2010)
In all, about 140,000 compounds went through this assay and about 4,300 (3.1%) were called active. The shares of active, inactive and inconclusive entries below differ from those in the screen.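 Rule for the calls: active = readout at or below -70, meaning at least 70% loss of cells showing the perinucleolar compartment, a nuclear body marking cancer cells; inconclusive = readout between -30 and a set limit; inactive = the rest.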

test: High Content Assay for Compounds that inhibit the Assembly of the Perinucleolar Compartment; conditions: PC3M PTB-GFP, PNC prevalence imaging, 16 h; at 10 µM; active compounds read low;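 note: plate controls were DMSO wells for no effect and camptothecin positive control wells for full effect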
Summary of the method: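 Read-out is percentage of cells bearing a perinucleolar compartment, from automated 20x imaging of fixed, Hoechst-stained PC3M PTB-GFP cells. Cells were seeded 4 h, then exposed 16 h to compound (23 nl of library stock) in duplicate plates.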

Row | Structure (SMILES) | activity change (PNC), negative = inhibition
1 | CCCc1nc(NCc2ccncc2)c2nnn(Cc3ccccc3F)c2n1 | inconclusive: -60.2%
2 | Cc1oc(-c2ccccc2Cl)nc1CSCC(=O)N1CCCC1 | active: -109%
3 | CCC(C(=O)NCc1ccco1)N(C(=O)CNS(=O)(=O)c1ccccc1)c1ccc(OC)cc1 (configuration not stated) | inactive: 11.9%
4 | COc1ccc(CCCc2nnc(SCC(=O)Nc3nc(C)cs3)n2C)cc1C | inconclusive: -44.7%
5 | CCc1nnc(NC(=O)CSc2nc3cccnc3n2Cc2ccccc2)s1 | inconclusive: -44.5%
6 | O=C(CCN1C(=O)c2ccc([N+](=O)[O-])cc2C1=O)Nc1cccc(O)c1 | inconclusive: -46.5%
7 | O=C(CCN1CCCCCC1)c1ccccc1 | inconclusive: -38.6%
8 | COc1ccc(-n2c(=S)[nH]c3cc(C(=O)Nc4ccccc4OC)ccc3c2=O)cc1 | inconclusive: -46.7%
9 | O=c1c(S(=O)(=O)c2ccc(Cl)cc2)cn(Cc2cccc(F)c2)c2ccc(F)cc12 | inconclusive: -42.2%
10 | CCC(=O)NC(Nc1sc2c(c1C(=O)OC)CCN(C)C2)(C(F)(F)F)C(F)(F)F | inconclusive: -43.7%
11 | O=C(Nc1nc2nc(-c3ccccc3)cc(=O)n2[nH]1)c1ccccc1 | inconclusive: -65.4%
12 | CCOC(=O)c1c(NC(=S)Nc2ccccc2)sc2c1CCN(CC)C2 | inactive: 15.7%
13 | N#Cc1ccc(-c2csc(NC3=NCCCCC3)n2)cc1 | inconclusive: -38.8%
14 | CCc1cccc(C)c1NC(=S)N(Cc1cccnc1)Cc1ccco1 | inconclusive: -33.2%
15 | CCNc1ccc(C(=O)OCC)cc1NC(=O)c1cccc(N(C)C)c1 | inconclusive: -62.3%
16 | CCCCNC(=O)c1cn(-c2ccc(OCC)cc2)c(=O)c2cc(OC)c(OC)cc12 | inconclusive: -31%
17 | COc1ccc(NC(=S)NNC(=O)OC(C)(C)C)cc1OC | inactive: 5.39%
18 | O=C(O)CCc1ccc(S(=O)(=O)N2CCOCC2)cc1 | inconclusive: -38.9%
19 | CCOc1ccccc1-c1nc(-c2cccc(Br)c2)no1 | inconclusive: -65%
20 | O=S(=O)(Nc1ccc(S(=O)(=O)N2CCCCC2)cc1)c1cccs1 | active: -102%
21 | COCC(=O)Nc1ccccc1NC(C)=O | inconclusive: -36.2%
22 | O=C(CC1CC2CCC1C2)OCC(=O)c1c[nH]c2ccccc12 (configuration not stated) | inconclusive: -33.7%
23 | CCN(CC)CCCN1C(=O)c2oc3ccccc3c(=O)c2C1c1cc(OC)ccc1OC (configuration not stated) | inconclusive: -47%

Row | Structure (SMILES) | activity change (PNC), negative = inhibition
24 | Cc1cc(=O)oc2cc(OCC(=O)NCc3ccco3)ccc12 | active: -100%
25 | CCCc1nc2ccc(NC(=O)c3ccco3)cc2c(=O)n1Cc1ccccc1Cl | active: -100%
26 | Cn1c(=NC(=O)CSCC(=O)N2CCCC2)sc2ccccc21 | inconclusive: -32.1%
27 | CCCCOc1ccc(C(=O)NNC(=S)NC(=O)CC)cc1 | inconclusive: -31.1%
28 | COc1cccc(Nc2ccc(Nc3cccc(OC)c3)nn2)c1 | inconclusive: -45.9%
29 | Cc1ccc(/C=N/NC(=O)c2csc(C)c2)o1 | inconclusive: -50%
30 | C/C(=N/Nc1ccc(F)cc1)c1ccc(Cl)s1 | inconclusive: -37.7%
31 | Cc1ccc(NC(=S)NCCc2c[nH]c3ccccc23)cc1 | inactive: 5.8%
32 | CC(=O)Nc1ccccc1OC(=O)N1CCOCC1 | inconclusive: -44.1%
33 | Cc1ccc(-c2cc(C(=O)N3CCCc4ccccc43)c3ccccc3n2)cc1 | inconclusive: -54%
34 | CC(C)CC1(C(=O)NCc2cc(F)cc(C(F)(F)F)c2)C=CCN1C(=O)c1ccccc1 (configuration not stated) | inactive: 75%
35 | Cn1c(COc2ccccc2)nnc1SCc1cc(=O)[nH]c2ccccc12 | active: -107%
36 | O=C(Nc1ccccc1-c1nnc(SCc2ccccc2)o1)c1ccccc1 | inconclusive: -48.2%
37 | O=C(O)c1ccccc1C(=O)N1CCN(c2cccc(Cl)c2)CC1 | inconclusive: -31.2%
38 | CCOC(=O)/C(CCC[N+](C)(CC)CC)=N\O | inconclusive: -35%
39 | Cc1ccc(NC(=O)/C(C#N)=C/c2cccs2)c(C)c1 | inconclusive: -37.2%
40 | COc1ccc(S(=O)(=O)NCCCN2CCOCC2)c2ccccc12 | inconclusive: -36.7%
41 | CCCCC[C@H](O)/C=C/[C@@H]1[C@@H](C/C=C\CCCC(=O)OC)[C@@H](O)C[C@H]1O | inconclusive: -37.8%
42 | COCC(=O)Nc1cc(OC)ccc1OC | inactive: -8.21%
43 | c1csc(Cc2nn3c(-c4ccncc4)nnc3s2)c1 | inconclusive: -46.8%
44 | CC(/C=N/n1cnnc1)=C\c1ccco1 | active: -100%
45 | Cc1ccc(-c2nsc(SCC(=O)NCc3ccc4c(c3)OCO4)n2)cc1 | inconclusive: -34.9%
46 | Nn1c(SCC(=O)NCc2ccccc2)nnc1C1CC1 | inactive: 28.6%

Grouped by structure, those above with a CF3 group.
Row | Structure (SMILES) | activity change (PNC), negative = inhibition
10 | CCC(=O)NC(Nc1sc2c(c1C(=O)OC)CCN(C)C2)(C(F)(F)F)C(F)(F)F | inconclusive: -43.7%
34 | CC(C)CC1(C(=O)NCc2cc(F)cc(C(F)(F)F)c2)C=CCN1C(=O)c1ccccc1 (configuration not stated) | inactive: 75%

Further records follow:

Row | Structure (SMILES) | activity change (PNC), negative = inhibition
47 | COCCNC(=S)N/N=C(\C)c1cc2ccccc2o1 | inconclusive: -58.6%
48 | Cn1cccc1C(=O)c1ccc(Cl)cc1Cl | inconclusive: -62.2%
49 | O=C1C2C(c3ccccc3)C=CC(c3ccccc3)C2C(=O)N1C1CCCCC1 (configuration not stated) | inactive: 11.8%
50 | O=C(N/N=C/c1ccsc1)c1cc(-c2ccncc2)nc2ccccc12 | active: -114%
51 | Cc1ccc(C)c(C(=O)CSc2n[nH]c(-c3ccncc3)n2)c1 | inactive: -10.5%
52 | N#Cc1c(-c2cccs2)cc(-c2cccnc2)nc1N | inconclusive: -30.5%
53 | Cc1ccsc1/C=N/n1c(-c2ccccn2)n[nH]c1=S | inconclusive: -30.6%
54 | CCOC(=O)N1CCN(C(=O)c2ccccc2CCc2ccccc2)CC1 | inconclusive: -42.8%
55 | NC(=S)N/N=C/c1coc2cc(Cl)ccc2c1=O | inconclusive: -64.4%
56 | Cc1c(CNC2CCCC2)c(C(=O)O)c(C)n1Cc1ccccc1 | inconclusive: -38.4%
57 | O=C(NCc1cccnc1)c1cccc2c1C(=O)N(C1CCCCC1)C2 | active: -100%
58 | CC1CCc2sc(NC(=S)NC(=O)c3ccccc3)c(C#N)c2C1 (configuration not stated) | active: -80.2%
59 | Cc1cccc(NC2=Nc3ccccc3N3C2=Nc2c(c(C)nn2-c2ccccc2)C3c2ccc(O)c(O)c2)c1 (configuration not stated) | inconclusive: -46.9%
60 | Cc1cccc(S(=O)(=O)Nc2ccc(-c3cn4ccccc4n3)cc2)c1 | inconclusive: -41.2%
61 | CCCCOc1ccc(C(=O)NC)cc1 | inactive: 1.74%
62 | O=[N+]([O-])c1cccc(/C=C/c2nc(C=Nc3ccc4ccccc4c3)c(O)o2)c1 | inconclusive: -30.8%
63 | Cc1ccc(SCc2cc(=O)[nH]c(Nc3nc(C)c4ccccc4n3)n2)cc1 | inconclusive: -53%
64 | CC1Cc2cc(-c3csc(NC(=O)Cc4cccs4)n3)ccc2N1S(C)(=O)=O (configuration not stated) | active: -125%
65 | Cc1ccc(C)c(Cc2c(C)nc3c(C(=O)N4CCOCC4)cnn3c2C)c1 | inconclusive: -34.3%
66 | Cc1ccc(S(=O)(=O)/N=C2/NC(=O)/C(=C/c3cccnc3)S2)cc1 | inactive: -8.16%
67 | Cc1c(-c2ccccc2)sc(N)c1C(=O)N1CCOCC1 | inconclusive: -36.2%
68 | CC(=O)N1CCc2cc(NS(=O)(=O)c3cccs3)ccc21 | inactive: -20.8%
69 | COC(=O)c1ccc(Oc2nc(NC(C)C)nc(SC)n2)cc1 | inconclusive: -37.6%

Row | Structure (SMILES) | activity change (PNC), negative = inhibition
70 | CCN(CC)CCNc1ccc(CO)c2sc3ccccc3c(=O)c12 | inconclusive: -71.6%
71 | COc1ccc2[nH]cc(C(=O)CN3CCN(C/C=C/c4ccccc4)CC3)c2c1 | inconclusive: -77.2%
72 | Cc1nnc(N(C)C(=O)Cc2ccc3c(c2)OCO3)s1 | active: -100%
73 | COc1ccccc1OCCNC(=O)c1cccs1 | inactive: 52.9%
74 | Cn1cnnc1SCC(=O)Nc1ccc2nc(SCc3ccccc3)sc2c1 | inactive: -0.722%
75 | CCCC[N+](C)(C)CCC(=O)NC(C)(C)CS(=O)(=O)[O-] | inconclusive: -36.6%
76 | Cc1ccc(C(=O)CC(C(=O)O)n2ccc(C)n2)cc1 (configuration not stated) | inconclusive: -53.7%
77 | Cc1ccc(O)c(CCc2ccccc2)n1 | inconclusive: -35.9%
78 | COc1ccc(-n2c(Cc3cccn3C)nnc2SCC(=O)Nc2ccc(F)cc2F)cc1 | inactive: 6.09%
79 | CC1CN(Cc2nc3c(c(=O)n(C)c(=O)n3C)n2Cc2ccccc2)CC(C)O1 (configuration not stated) | inactive: -17.5%
80 | O=C(Cn1c(SCC(=O)NC2CCCC2)nnc1-c1ccncc1)Nc1ccc2c(c1)OCO2 | inconclusive: -39.9%
81 | O=C(Nc1nnc(-c2ccc(Cl)cc2)o1)c1ccccc1Br | inconclusive: -33.5%
82 | CC1=CC(=Nc2c(C)n(C)n(-c3ccccc3)c2=O)C=C(C)C1=O | inconclusive: -48.8%
83 | CCN(CC)S(=O)(=O)c1cccc(C(=O)N2CC(O)CC2C(=O)O)c1 (configuration not stated) | active: -107%
84 | Cn1c(=O)c2c(ncn2CC(=O)OCC(=O)NC2CCCc3ccccc32)n(C)c1=O (configuration not stated) | inconclusive: -51%
85 | Cc1nnc(SCC(=O)N2CCOCC2)[nH]c1=O | inconclusive: -44.3%
86 | CC1=C(C(N)=O)C(c2cccnc2)n2nc(-c3cccc(C)c3)nc2N1 (configuration not stated) | inconclusive: -52.7%
87 | COc1ccc(OC)c(C2CC(=O)N3CN(c4cccc(Cl)c4C)CSC3=C2C#N)c1 (configuration not stated) | inactive: -24.2%
88 | OC(COc1cccc2ccccc12)CN1CCCC1 (configuration not stated) | inconclusive: -43.6%
89 | CCOC(=O)/C=C/C(=O)Nc1cccc([N+](=O)[O-])c1 | inactive: 3.91%
90 | COC(=O)CSc1nc(SCc2ccccc2Cl)nc2c1CCCC2 | inconclusive: -72.8%
91 | CC1(C)CSC(=S)N1S(=O)(=O)c1ccccc1 | inconclusive: -47.5%
92 | O=[N+]([O-])c1cc(S(=O)(=O)N2CCCC2)ccc1N/N=C/c1cccs1 | inactive: -12.7%
